Test results: paper PMC7939435

Legend:
Assay in all cases: co-IP; GFP-tagged Gag version immunoprecipitated from yeast extract with polyclonal anti-GFP and Protein A-Sepharose, 50 mM Tris pH 7.5, 400 mM NaCl, 1% Triton X-100, 10% glycerol, 4 °C overnight; Bro1 or Vps23 detected by anti-HA or anti-Myc blot; also done with Δbro1 or Δvps23 cells (Fig. S12 A-C)
[1] = target: Gag(V35E)-GFP (expressed in yeast) (HIV-1)
[2] = target: Gag(MA3*/ΔNCA)-GFP (expressed in yeast) (HIV-1)
[3] = target: Gag-GFP (expressed in yeast) (HIV-1)

Measured: binding

B1: Vps23 (genomically epitope-tagged) (protein, UniProt P25604 1-385)
chain: MSANGKISVPEAVVNWLFKVIQPIYNDGRTTFHDSLALLDNFHSLRPRTRVFTHSDGTPQLLLSIYGTISTGEDGSSPHSIPVIMWVPSMYPVKPPFISINLENFDMNTISSSLPIQEYIDSNGWIALPILHCWDPAAMNLIMVVQELMSLLHEPPQDQAPSLPPKPNTQLQQEQNTPPLPPKPKSPHLKPPLPPPPPPQPASNALDLMDMDNTDISPTNHHEMLQNLQTVVNELYREDVDYVADKILTRQTVMQESIARFHEIIAIDKNHLRAVEQAIEQTMHSLNAQIDVLTANRAKVQQFSSTSHVDDEDVNSIAVAKTDGLNQLYNLVAQDYALTDTIECLSRMLHRGTIPLDTFVKQGRELARQQFLVRWHIQRITSPLS
binds: [1] | [2] | [3]

B2: Bro1 (genomically epitope-tagged) (protein, UniProt P48582 1-844)
chain: MKPYLFDLKLKDTEKLDWKKGLSSYLKKSYGSSQWRTFYDEKATSELDHLRNNANGELAPSSLSEQNLKYYSFLEHLYFRLGSKGSRLKMDFTWYDAEYSSAQKGLKYTQHTLAFEKSCTLFNIAVIFTQIARENINEDYKNSIANLTKAFSCFEYLSENFLNSPSVDLQSENTRFLANICHAEAQELFVLKLLNDQISSKQYTLISKLSRATCNLFQKCHDFMKEIDDDVAIYGEPKWKTTVTCKLHFYKSLSAYYHGLHLEEENRVGEAIAFLDFSMQQLISSLPFKTWLVEFIDFDGFKETLEKKQKELIKDNDFIYHESVPAVVQVDSIKALDAIKSPTWEKILEPYMQDVANKCDSLYRGIIPLDVYEKESIYSEEKATLLRKQVEETETANLEYSSFIEFTNLPRLLSDLEKQFSDGNIFSNTDTQGQLMRDQIQTWCKFIQTNEFRDIEEQMNKIVFKRKQILEILSALPNDQKENVTKLKSSLVAASNSDEKLFACVKPHIVEINLLNDNGKIWKKFDEFNRNTPPQPSLLDIDDTKNDKILELLKQVKGHAEDLRTLKEERSRNLSELRDEINNDDITKLLIINKGKSDVELKDLFEVELEKFEPLSTRIEATIYKQSSMIDDIKAKLDEIFHLSNFKDKSSGEEKFLEDRKNFFDKLQEAVKSFSIFASDLPKGIEFYDSLFNMSRDLAERVRVAKQTEDSTANSPAPPLPPLDSKASVVGGPPLLPQKSAAFQSLSRQGLNLGDQFQNLKISAGSDLPQGPGIPPRTYEASPYAATPTMAAPPVPPKQSQEDMYDLRRRKAVENEERELQENPTSFYNRPSVFDENMYSKYSS
binds: [1] | [2] | [3]

Results are given in words; binding and its absence hold for the method and conditions named. Binding seen in cells or lysates may run through a third protein. Binding can be weak; no strength is given. Tags and fused reporters may be left off the sequences shown.
